For five substances, conjugation yield and step yield results are on record in patent US20100015058A1 (STANFORD UNIVERSITY, priority 2008, published 2010).

The data set in a line: general procedure: Fmoc solid-phase peptide synthesis; Rink Amide MBHA resin; TSTU. To be noted: for conjugation yield: conjugation step; for step yield: late stage modification step.
[1] abbreviates: head-to-tail ring, sequence written open.

For the substance “3,3′-(2-aminoethylazanediyl)dipropanoic acid (AEADP)-RGD-BBN hetero dimmer (III)”, the conjugation yield (overall, two steps, head-to-tail ring, sequence written open) is 32%. FB-AEADP-RGD-BBN had a step yield under setting [1] of 85%. In turn, FB-PEG3-Glu-RGD-BBN returned a step yield under setting [1] of 76%.

Consider NOTA-c(RGDyK), for which the conjugation yield was 61%. The substance PEG3-Glu-RGD-BBN returned a conjugation yield under setting [1] of 58%.
